PubChem BioAssay AID1159578, Peter MacCallum Cancer Centre | 2015
Test: 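Genome-wide hunt for genes controlling movement of lymphatic endothelial cells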 (primary screen). Cells: human lymphatic endothelial cells. Knock-down reagent: siRNA pool against human genes, 40 nM. Duration: 48 h after transfection. Measured: 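High-content imaging of dye-stained cells in a scratch assay measures filled wound area and nuclei per well; duplicate means given as ratio to mock and robust z-score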. Scale: migration robust z-score: higher = faster migration into the scratch; nuclei per well: higher = more cells in the well. Rule for the call: 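Pools averaging fewer than 3300 nuclei are never called; remaining pools count as changed when migration robust z lies outside -2 to 2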. Calls: active = migration changed; inactive = no migration change, or too few cells.
The whole screen tested about 18,000 reagents; shown is a part drawn at random. Over the whole deposit, about 1,030 (5.7%) were called active. 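Inactive calls also include pools with fewer than 3300 nuclei, whose migration was not assessed.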 Raw values are not corrected between plates. Further read-outs or replicates are left out here.

Gene,migration robust z-score,"nuclei per well, duplicate mean",call
OOSP2,-0.99,4742,inactive
MCRIP1,0.04,5872,inactive
NXPE4,0.4,7068,inactive
RHCE,0.73,6123,inactive
GTPBP10,0.36,5166,inactive
OR1L1,0.43,5795,inactive
KBTBD12,2.03,5498,active
THOC2,-0.02,5720,inactive
PLD2,0.49,6625,inactive
GOLM2,-1.54,4434,inactive
FIG4,1.56,5738,inactive
MSMO1,0.86,6710,inactive
OLR1,-0.96,5832,inactive
NTAQ1,-0.64,6762,inactive
DCAF7,-0.12,4958,inactive
TTBK2,-1.32,3390,inactive
TRIM49,0.21,5454,inactive
TTC22,1.9,5284,inactive
CASP2,-0.44,5768,inactive
SHOC2,-2.13,4022,active
VIPR1,-0.16,5771,inactive
ACKR4,-0.75,5559,inactive
ZNF677,0.51,5580,inactive
GJC1,-0.21,6439,inactive
ANKRD46,-0.3,7778,inactive
ZNF536,0.64,4314,inactive
AOC3,-2.59,6349,active
PARK7,-1.42,4282,inactive
RPGRIP1L,-0.9,5287,inactive
RNF139,1.19,5756,inactive
GABRA3,0.16,4859,inactive
SEPTIN1,-0.03,5000,inactive
FCGR2A,-1.35,5642,inactive
RAB42,-0.32,5705,inactive
SPANXN2,0.2,5369,inactive
RPA2,-1.04,5522,inactive
FJX1,-0.56,4922,inactive
SSH2,0.34,5192,inactive
SELENOP,1.24,6450,inactive
SLC25A47,-0.21,5994,inactive
GPATCH2L,0.82,5668,inactive
SLC9A1,-0.57,4218,inactive
HNRNPU,0.54,5800,inactive
SCUBE2,-0.62,6424,inactive
LAMB1,-0.87,5286,inactive
SEBOX,-1.34,7200,inactive
INMT,-1.38,4969,inactive
AGAP3,-1.9,3339,inactive
DLK2,-0.4,6328,inactive
NAA50,0.17,5993,inactive
CFAP54,0.52,7796,inactive
PHF21B,-0.52,4726,inactive
ZNF641,-1.87,4398,inactive
KDELR3,-1.35,5442,inactive
ARHGAP24,0.12,6298,inactive
PHAF1,-0.25,5932,inactive
RACGAP1,1.18,4774,inactive
SORCS1,1.27,7158,inactive
MARCHF1,1.02,6334,inactive
CLSTN1,-2.12,5005,active
SRGN,0.76,5054,inactive
ZNF662,-0.2,6538,inactive
ACAP1,0.61,6112,inactive
PHRF1,0.23,5098,inactive
SEC14L3,-0.18,5400,inactive
CCDC198,1.14,5492,inactive
NTHL1,-0.11,6192,inactive
SCRG1,-0.6,5601,inactive
POLR2B,-1.01,5552,inactive
SGTB,0.88,7140,inactive
PIM1,-0.03,4580,inactive
NDUFB2,-0.21,5605,inactive
CT47A9,-1.03,5572,inactive
